Measurements as given in publication PMC7038599.
No constants are given. Whether binding was seen depends on the method and setting. Binding seen in cells or lysates may run through a third protein. Binding can be weak; no strength is given. Where a sequence is shown, tags or fusion partners need not be part of it.

Biological target: T1, poSn helical transmembrane plus cytoplasmic domain, myc-his tagged (poSn-TCD-myc-his) (pig) (UniProt A7LCJ3)
T1 sequence: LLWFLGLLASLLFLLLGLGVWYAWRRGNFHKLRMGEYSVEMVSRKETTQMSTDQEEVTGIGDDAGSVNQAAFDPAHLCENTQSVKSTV
Test: co-IP; HEK-293T cells co-transfected for 48 h; whole cell lysates in IP lysis buffer mixed with anti-myc or anti-Flag mAb and Protein A/G beads at 4 °C for 3 h or overnight; washed with TBST; eluted with 0.05 M glycine-HCl pH 2.2; immunoblot

For DAP12-D50A (3×Flag tagged) (pig), the binding was “binds”.
